Measurements from paper PMC3999155.
These are yes or no findings as the source states them, for the method shown. In cells and extracts the contact can be indirect. Some entries that bind do so weakly or less than the wild type. For part of these data: Where a sequence is shown, tags or fusion partners need not be part of it.

Sequences of proteins named here, by UniProt entry; tags and fusion partners are left off.
UniProt Q96FW1: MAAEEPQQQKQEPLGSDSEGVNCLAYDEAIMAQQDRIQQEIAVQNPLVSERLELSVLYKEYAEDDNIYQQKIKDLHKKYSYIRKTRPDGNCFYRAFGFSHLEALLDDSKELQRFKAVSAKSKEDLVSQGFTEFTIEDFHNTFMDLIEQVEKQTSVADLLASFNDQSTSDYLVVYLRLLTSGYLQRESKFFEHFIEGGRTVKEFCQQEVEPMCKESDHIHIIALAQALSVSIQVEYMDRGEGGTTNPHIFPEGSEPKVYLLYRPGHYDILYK
UniProt Q9HBL8: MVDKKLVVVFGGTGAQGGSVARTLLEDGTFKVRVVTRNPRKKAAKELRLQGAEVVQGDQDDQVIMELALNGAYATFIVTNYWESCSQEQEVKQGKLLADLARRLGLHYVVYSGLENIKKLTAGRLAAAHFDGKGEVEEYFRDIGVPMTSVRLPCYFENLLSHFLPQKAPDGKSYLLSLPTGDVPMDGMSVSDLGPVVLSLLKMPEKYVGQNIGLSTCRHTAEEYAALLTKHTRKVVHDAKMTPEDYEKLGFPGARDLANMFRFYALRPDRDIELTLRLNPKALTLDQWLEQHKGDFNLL

Columns and labels:
Test in all cases: co-IP; HEK293T transfected with both tagged partners, harvested 48 h after transfection; IP by one tag, IB by the other; with or without SeV (40 HAU/ml), with or without co-expressed HSCARG or HSCARG shRNA
Flag-TRAF3 109–347 = molecular target: T1, Flag-TRAF3 109–347 (UniProt Q13114)
T1 sequence: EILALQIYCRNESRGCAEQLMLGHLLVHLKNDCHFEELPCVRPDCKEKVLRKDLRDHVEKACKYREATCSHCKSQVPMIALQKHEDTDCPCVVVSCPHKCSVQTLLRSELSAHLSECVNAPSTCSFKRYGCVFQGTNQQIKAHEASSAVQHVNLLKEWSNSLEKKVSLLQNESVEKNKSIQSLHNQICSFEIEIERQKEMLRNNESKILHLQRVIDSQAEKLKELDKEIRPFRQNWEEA

Flag-OTUB1 = Flag-OTUB1 (UniProt Q96FW1)
Flag-TBK1 = molecular target: T2, Flag-TBK1 (UniProt Q9UHD2)
T2 sequence: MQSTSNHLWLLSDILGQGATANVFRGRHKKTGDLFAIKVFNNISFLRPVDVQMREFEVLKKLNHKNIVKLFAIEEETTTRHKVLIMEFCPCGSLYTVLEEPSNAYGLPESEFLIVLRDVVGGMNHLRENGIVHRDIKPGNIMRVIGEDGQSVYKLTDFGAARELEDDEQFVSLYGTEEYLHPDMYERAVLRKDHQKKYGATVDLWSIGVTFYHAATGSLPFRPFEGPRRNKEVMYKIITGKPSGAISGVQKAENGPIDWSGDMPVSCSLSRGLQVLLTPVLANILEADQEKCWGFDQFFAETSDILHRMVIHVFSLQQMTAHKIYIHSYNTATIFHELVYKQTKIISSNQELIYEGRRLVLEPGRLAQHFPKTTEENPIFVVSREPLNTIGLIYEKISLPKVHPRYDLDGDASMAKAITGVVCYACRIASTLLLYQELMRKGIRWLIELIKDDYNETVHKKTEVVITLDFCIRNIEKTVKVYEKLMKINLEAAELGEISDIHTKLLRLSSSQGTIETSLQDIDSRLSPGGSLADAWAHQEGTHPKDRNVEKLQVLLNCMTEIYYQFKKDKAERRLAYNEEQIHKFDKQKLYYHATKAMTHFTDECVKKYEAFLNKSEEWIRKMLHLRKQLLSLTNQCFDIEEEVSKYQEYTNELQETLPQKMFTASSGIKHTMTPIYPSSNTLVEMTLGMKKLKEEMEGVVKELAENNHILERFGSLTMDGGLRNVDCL

Row | binding (Flag-TRAF3 109–347) | binding (Flag-OTUB1) | binding (Flag-TBK1) | Substance
1 | binds | binds | – | HA-HSCARG (from UniProt Q9HBL8 1-299)
2 | – | – | no binding | Myc-HSCARG (from UniProt Q9HBL8 1-299)
